For one substance, binding results are on record in article PMC4909244.

Protein sequences, listed by entry. Tags and fused reporters are not part of them. Residues count along the entry.
UniProt P42799, residues 39-474: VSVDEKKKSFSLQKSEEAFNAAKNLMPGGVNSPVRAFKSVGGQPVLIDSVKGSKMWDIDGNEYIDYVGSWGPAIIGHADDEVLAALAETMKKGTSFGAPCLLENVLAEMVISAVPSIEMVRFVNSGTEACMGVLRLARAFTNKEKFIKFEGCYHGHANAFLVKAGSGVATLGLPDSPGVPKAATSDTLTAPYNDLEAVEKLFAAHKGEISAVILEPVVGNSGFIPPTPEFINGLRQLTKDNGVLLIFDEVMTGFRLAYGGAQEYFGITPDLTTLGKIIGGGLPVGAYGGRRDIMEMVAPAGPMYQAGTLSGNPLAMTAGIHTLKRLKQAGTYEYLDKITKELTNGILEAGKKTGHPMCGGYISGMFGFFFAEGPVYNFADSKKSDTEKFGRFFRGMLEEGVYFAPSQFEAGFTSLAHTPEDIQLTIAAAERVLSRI

Results are given in words; binding and its absence hold for the method and conditions named. Some binding calls cover weakened binding; strength is not graded here.

In the experiment the target is Glutamate-1-semialdehyde-2,1-aminomutase from Arabidopsis thaliana (AtGSA1) (Arabidopsis thaliana) (UniProt P42799). Description: crystal structure; sitting-drop vapour diffusion at 4°C, 0.15 M potassium bromide, 30%(w/v) PEG 2000 MME; 1.25 Å; dimer in the asymmetric unit; both purified.

On to “Glutamate-1-semialdehyde-2,1-aminomutase from Arabidopsis thaliana (AtGSA1) (from UniProt P42799 39-474) (enzyme)”, for which the binding entry is reported as “binds”.
